According to PubChem BioAssay AID344 (DTP/NCI, 2004):
The list does not hold the whole screen: it is rich in T/C values a quarter to a half above the control, in often repeated tests (any T/C) and in doses without a T/C. Other doses and runs of a compound stand elsewhere. T/C is the treated group as % of the vehicle group. Some entries give survivors of the animals treated and no T/C: the source holds a T/C of zero for them, seemingly a mark for toxic or unscored doses. Some survivor counts are full or nearly so, which does not show that the dose was tolerated: the source hardly ever lists a survival T/C far under the control, and the zero likely stands for such cases as well. Counts of survivors are from the toxicity check (mostly the fifth day) where no day follows; animals may have died later. Schedules are NCI's codes, read here as Q, the interval in days (D) or hours (H), X, the number of doses. Marks such as (2×) say how often a value occurs here. For survival time, the PubChem record calls one and a half times the control and up active, and a quarter to a half above the control has no call in these data; cut-offs in other NCI protocols can differ. Some T/C values carry the count of animals alive at the toxicity check (mostly the fifth day); without a count, all were alive then. Some entries were tested several times; the values are given in rising order. Some schedule codes hold Z or #, which are not explained here.

Tested on: mice, LPC-1 plasma cell tumor ip, median survival T/C
Experiment: NCI In Vivo Anticancer Drug Screen. Data for tumor model Lieberman Plasma Cell No. 1 (LPC-1) (intraperitoneal) in unknown mice
Conditions: T/C endpoint: median survival time, higher T/C = longer survival
Experimental: The antitumor activity of compounds was measured in mice bearing transplantable tumors. Survival or tumor size were measured and the results are expressed as the measurement made in the treated group (T) divided by the measurement made in the vehicle treated control group (C). The tumor model used in this assay is Lieberman Plasma Cell No. 1 (LPC-1) (intraperitoneal) in unknown mice

[1] = dose: 60.0 mg/kg/injection, schedule: Q01DX028 (sc), vehicle: saline
[2] = dose: 65.0 mg/kg/injection, schedule: Q01DX028 (sc), vehicle: saline

O=P1(N(CCCl)CCCl)NCCCO1 (stereo not drawn)
T/C (dose: 6.25 mg/kg/injection, schedule: Q01DX028 (sc), vehicle: saline): 132 % of control
T/C (dose: 7.8 mg/kg/injection, schedule: Q01DX010 (sc), vehicle: saline): 140 % of control
T/C (dose: 8.0 mg/kg/injection, schedule: Q01DX028 (sc), vehicle: saline): 129 % of control
T/C (dose: 10.0 mg/kg/injection, schedule: Q01DX028 (sc), vehicle: saline, evaluated on day 72): 182 % of control
T/C (dose: 10.0 mg/kg/injection, schedule: Q01DX028 (sc), vehicle: saline, evaluated on day 90): 183 (2×) and 211 % of control
T/C (dose: 10.0 mg/kg/injection, schedule: Q01DX028 (sc), vehicle: saline, run until all animals had died): 100, 143, 177, 184, 197 (2×), 200, 202 [7 of 8 alive], 212 % of control [7 of 8 alive]
T/C (dose: 12.5 mg/kg/injection, schedule: Q01DX015 (sc), vehicle: saline): 144 % of control [7 of 8 alive]
T/C (dose: 12.5 mg/kg/injection, schedule: Q01DX028 (sc), vehicle: saline, evaluated on day 48): 184 and 192 % of control
T/C (dose: 12.5 mg/kg/injection, schedule: Q01DX028 (sc), vehicle: saline, evaluated on day 53): 183 % of control [7 of 8 alive]
T/C (dose: 12.5 mg/kg/injection, schedule: Q01DX028 (sc), vehicle: saline, evaluated on day 70): 196 % of control
T/C (dose: 12.5 mg/kg/injection, schedule: Q01DX028 (sc), vehicle: saline, evaluated on day 87): 146 % of control [7 of 8 alive]
T/C (dose: 12.5 mg/kg/injection, schedule: Q01DX028 (sc), vehicle: saline, evaluated on day 90): 153, 171 [7 of 10 alive], 173 % of control
T/C (dose: 12.5 mg/kg/injection, schedule: Q01DX028 (sc), vehicle: saline, run until all animals had died): 145, 168 [9 of 10 alive], 178, 231 % of control
survivor count (dose: 14.0 mg/kg/injection, schedule: Q01DX009 (sc), vehicle: saline): 5 of 8
T/C (dose: 14.0 mg/kg/injection, schedule: Q01DX028 (sc), vehicle: saline): 100 [9 of 12 alive], 102 [8 of 10 alive], 105 [8 of 10 alive], 157 [9 of 12 alive], 162, 171, 202, 210 (2×), 212, 213 (2×), 216 [7 of 8 alive], 222 [7 of 8 alive], 223, 227 [9 of 10 alive], 241, 242, 325 % of control
T/C (dose: 15.0 mg/kg/injection, schedule: Q01DX028 (sc), vehicle: saline): 94 [7 of 8 alive], 118 [7 of 8 alive], 200 [7 of 8 alive], 226 % of control
T/C (dose: 20.0 mg/kg/injection, schedule: Q01DX028 (sc), vehicle: saline, evaluated on day 72): 212 % of control
T/C (dose: 20.0 mg/kg/injection, schedule: Q01DX028 (sc), vehicle: saline, evaluated on day 90): 202, 208, 252 % of control
T/C (dose: 20.0 mg/kg/injection, schedule: Q01DX028 (sc), vehicle: saline, run until all animals had died): 136, 143, 144 [9 of 10 alive], 177, 202, 205, 217, 222, 222 % of control [9 of 10 alive]
T/C (dose: 23.0 mg/kg/injection, schedule: Q01DX009 (sc), vehicle: saline): 145 % of control [7 of 8 alive]
T/C (dose: 23.0 mg/kg/injection, schedule: Q01DX028 (sc), vehicle: saline): 114 [8 of 12 alive], 125, 128 [7 of 8 alive], 136 [7 of 8 alive], 140 (2×), 145 [11 of 12 alive], 158, 162 [8 of 10 alive], 191, 202, 207, 213, 222, 227, 232, 256, 266 [9 of 10 alive], 309 % of control
survivor count (dose: 25.0 mg/kg/injection, schedule: Q01DX009 (ip), vehicle: saline): 6 of 6
T/C (dose: 25.0 mg/kg/injection, schedule: Q01DX028 (sc), vehicle: saline, evaluated on day 48): 184 and 192 % of control
T/C (dose: 25.0 mg/kg/injection, schedule: Q01DX028 (sc), vehicle: saline, evaluated on day 53): 169 % of control [7 of 8 alive]
T/C (dose: 25.0 mg/kg/injection, schedule: Q01DX028 (sc), vehicle: saline, evaluated on day 70): 288 % of control
T/C (dose: 25.0 mg/kg/injection, schedule: Q01DX028 (sc), vehicle: saline, evaluated on day 87): 166 % of control
T/C (dose: 25.0 mg/kg/injection, schedule: Q01DX028 (sc), vehicle: saline, evaluated on day 90): 114, 171, 221 % of control [9 of 10 alive]
T/C (dose: 25.0 mg/kg/injection, schedule: Q01DX028 (sc), vehicle: saline, run until all animals had died): 152, 207, 215, 281 % of control
T/C (dose: 30.0 mg/kg/injection, schedule: Q01DX028 (sc), vehicle: saline): 107 [6 of 8 alive], 126 [6 of 8 alive], 152 [7 of 8 alive], 202 % of control
T/C (dose: 39.0 mg/kg/injection, schedule: Q01DX028 (sc), vehicle: saline): 105 [9 of 10 alive], 111 [6 of 8 alive], 112, 124 [6 of 8 alive], 131 [8 of 12 alive], 147 [9 of 10 alive], 155, 172, 173, 179, 192, 214 % of control
T/C (dose: 40.0 mg/kg/injection, schedule: Q01DX028 (sc), vehicle: saline, evaluated on day 72): 189 % of control
T/C (dose: 40.0 mg/kg/injection, schedule: Q01DX028 (sc), vehicle: saline, evaluated on day 90): 200, 213 [7 of 8 alive], 250 % of control
T/C (dose: 40.0 mg/kg/injection, schedule: Q01DX028 (sc), vehicle: saline, run until all animals had died): 94, 102, 130, 134 [9 of 10 alive], 150, 158 [7 of 8 alive], 166, 177, 187 % of control
T/C (dose: 40.0 mg/kg/injection, schedule: Q01DX Z (sc), vehicle: saline): 138 % of control [9 of 10 alive]
survivor count (dose: 50.0 mg/kg/injection, schedule: Q01DX009 (ip), vehicle: saline): 6 of 6
T/C (dose: 50.0 mg/kg/injection, schedule: Q01DX028 (sc), vehicle: saline, evaluated on day 48): 188 % of control
T/C (dose: 50.0 mg/kg/injection, schedule: Q01DX028 (sc), vehicle: saline, evaluated on day 53): 175 % of control
T/C (dose: 50.0 mg/kg/injection, schedule: Q01DX028 (sc), vehicle: saline, evaluated on day 70): 180 % of control
T/C (dose: 50.0 mg/kg/injection, schedule: Q01DX028 (sc), vehicle: saline, evaluated on day 87): 140 % of control
T/C (dose: 50.0 mg/kg/injection, schedule: Q01DX028 (sc), vehicle: saline, evaluated on day 90): 115, 135, 240 % of control
T/C (dose: 50.0 mg/kg/injection, schedule: Q01DX028 (sc), vehicle: saline, run until all animals had died): 186 and 186 % of control [7 of 8 alive]
T/C [1]: 97 [7 of 8 alive], 127 [7 of 8 alive], 157 % of control
survivor count [1]: 3 of 8
T/C (dose: 62.5 mg/kg/injection, schedule: Q01DX010 (sc), vehicle: saline): 131 % of control
T/C (dose: 64.0 mg/kg/injection, schedule: Q01DX028 (sc), vehicle: saline): 129 % of control
T/C [2]: 111, 128, 139 [11 of 12 alive], 140, 142, 152 % of control
survivor count [2]: 6 of 12
survivor count (dose: 100.0 mg/kg/injection, schedule: Q01DX009 (ip), vehicle: saline): 6 of 6 (2×)
T/C (dose: 108.0 mg/kg/injection, schedule: Q01DX028 (sc), vehicle: saline): 95, 95 [8 of 12 alive], 97, 114, 128 % of control
survivor count (dose: 108.0 mg/kg/injection, schedule: Q07DX004 (sc), vehicle: saline): 7 of 12
survivor count (dose: 180.0 mg/kg/injection, schedule: Q07DX004 (sc), vehicle: saline): 7 of 12
survivor count (dose: 300.0 mg/kg/injection, schedule: Q07DX004 (sc), vehicle: saline): 7 of 12
survivor count (dose: 500.0 mg/kg/injection, schedule: Q07DX004 (sc), vehicle: saline): 4 of 12

S=C(N=Nc1ccccc1)NNc1ccccc1
survivor count (dose: 25.0 mg/kg/injection, schedule: Q01DX028 (sc), vehicle: carboxymethylcellulose (CMC)): 6 of 10
survivor count (dose: 50.0 mg/kg/injection, schedule: Q01DX028 (sc), vehicle: carboxymethylcellulose (CMC)): 4 of 8
survivor count (dose: 75.0 mg/kg/injection, schedule: Q01DX028 (sc), vehicle: carboxymethylcellulose (CMC)): 6 of 10
survivor count (dose: 100.0 mg/kg/injection, schedule: Q01DX028 (sc), vehicle: carboxymethylcellulose (CMC)): 4 of 10

CS(=O)(=O)OCCC(=O)NCNC(=O)CCOS(C)(=O)=O
T/C (dose: 6.25 mg/kg/injection, schedule: Q01DX012 (sc), vehicle: carboxymethylcellulose (CMC)): 134 % of control
